Reference: paper PMC4326459
These are yes or no findings as the source states them, for the method shown. Binding seen in cells or lysates may run through a third protein. A result given as binding can be weak or reduced; the word gives no strength.

The chains behind the UniProt entries cited, without tags or fusion partners. Where a name states a change or a piece, a line headed by the entry shows the natural chain unless it says otherwise.
UniProt P12004: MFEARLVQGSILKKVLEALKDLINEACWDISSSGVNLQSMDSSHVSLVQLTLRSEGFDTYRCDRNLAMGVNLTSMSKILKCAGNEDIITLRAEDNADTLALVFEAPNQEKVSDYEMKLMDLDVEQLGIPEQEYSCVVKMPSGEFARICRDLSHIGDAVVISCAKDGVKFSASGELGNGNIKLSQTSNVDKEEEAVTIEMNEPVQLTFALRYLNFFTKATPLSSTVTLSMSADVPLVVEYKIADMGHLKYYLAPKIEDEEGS
UniProt P55211: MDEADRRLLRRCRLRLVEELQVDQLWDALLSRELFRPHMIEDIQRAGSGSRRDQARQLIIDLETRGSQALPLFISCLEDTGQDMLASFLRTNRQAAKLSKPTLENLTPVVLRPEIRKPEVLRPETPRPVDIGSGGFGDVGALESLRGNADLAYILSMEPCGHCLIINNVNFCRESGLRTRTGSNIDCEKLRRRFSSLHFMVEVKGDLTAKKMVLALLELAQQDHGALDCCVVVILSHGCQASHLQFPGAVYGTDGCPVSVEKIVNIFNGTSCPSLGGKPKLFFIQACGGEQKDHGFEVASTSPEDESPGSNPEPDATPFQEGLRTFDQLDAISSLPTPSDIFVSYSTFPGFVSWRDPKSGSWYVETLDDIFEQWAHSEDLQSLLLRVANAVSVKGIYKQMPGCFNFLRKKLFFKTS

Key:
Experiment in all cases: pull-down; WT or mutant His-PCNA on nickel-agarose beads, exposed to SNOC or control conditions, incubated in the dark with HeLa cytosolic fraction (about 50 ug His-PCNA, overnight, 4°C); caspase-9 detected by Western blot; only the target purified
[1] = target: recombinant His-PCNA C81A (human) (UniProt P12004)
[2] = target: recombinant wild-type His-PCNA (human) (UniProt P12004)
[3] = target: recombinant His-PCNA C162A (human) (UniProt P12004)

Measured: binding

caspase-9, endogenous in HeLa cytosol (from UniProt P55211) (enzyme)
binds: all assays above
